Measured values from the DeepSol protein solubility set.

Experiment: soluble on expression in E. coli; label from the status in PepcDB or PDB records
For “ALWQFRSLIKCAIPGSHPLLDFNNYGCYCGLGGSGTPVDELDRCCETHDCCYRDAKNLDSCKFLVDNPYTESYSYSCSNTEITCNSKNNACEAFICNCDRNAAICFSKAPYNKEHKNLDTKKYCKGESDKC”, the “soluble on expression in E. coli” value was “soluble”. In the case of “EGVVEAVACFAYTGRTAQELSFRRGDVLRLHERASSDWWRGEHNGMRGLIPHKYITLPAGTEKQVVGAG”, the “soluble on expression in E. coli” value is reported as “soluble”. In the case of “FEKFRWFISSEGFLVIGGKDATTNEIVVKKHMDENDIYCHADIWGAPHVIIKNGRNASEKTIREACQFAVAMSRAWSEGLASADAYWVYPEQVSKQAPAGEYLPK”, the “soluble on expression in E. coli” value is reported as “not soluble”. For “GDMENIPWYPKKISDLDKCANRVLMYGSDLDADHPGFKDNVYRKRRKYFADLAMNYKHGDPIPEIEFTEEEIKTWGTVYRELNKLYPTHACREYLKNLPLLTKYCGYREDNIPQLEDVSRFLKERTGFTIRPVAGYLSPRDFLAGLAFRVFHCTQYVRHSSDPLYTPEPDTCHELLGHVPLLAEPSFAQFSQEIGLASLGASDEAVQKLATCYFFTVEFGLCKQEGQLRVYGAGLLSSISELKHSLSGSAKVKPFDPKVTCKQECLITTFQEVYFVSESFEEAKEKMREFAKTIKRPFGVKYNPYTQSVQILKD”, the “soluble on expression in E. coli” value was “soluble”. In the case of “GNSATSADEQPHIGNYRLLKTIGKGNFAKVKLARHILTGKEVAVKIIDKTQLNSSSLQKLFREVRIMKVLNHPNIVKLFEVIETEKTLYLVMEYASGGEVFDYLVAHGRMKEKEARAKFRQIVSAVQYCHQKFIVHRDLKAENLLLDADMNIKIADFGFSNEFTFGNKLDTFCGSPPYAAPELFQGKKYDGPEVDVWSLGVILYTLVSGSLPFDGQNLKELRERVLRGKYRIPFYMSTDCENLLKKFLILNPSKRGTLEQIMKDRWMNVGHEDDELKPYVAPLPDYKDPRRTELMVSMGYTREEIQDSLVGQRYNEVMATYLLLGYK”, the “soluble on expression in E. coli” value is reported as “soluble”. In the case of “GSDGEPLVGGDTDDQLQGGSGADRLDGGAGDDILDGGAGRDRLSGGAGADTFVFSAREDSYRTDTAVFNDLILDFEASEDRIDLSALGFSGLGDGYGGTLLLKTNAEGTRTYLKSFEADAEGRRFEVALDGDHTGDLSAANVVFAATGTTTELEVLGDSGTQAGAIV”, the “soluble on expression in E. coli” value is reported as “soluble”. With “GSPEFHMDALGPLPDGWEKKIQSDNRVYFVNHKNRTTQWEDPRTQGQEVSLINEGPLPPGWEIRYTAAGERFFVDHNTRRTTFEDPRP” the “soluble on expression in E. coli” value was “soluble”. In the case of “LTQELGTAFFQQQQLPAAMADTFLEHLCLLDIDSEPVAARSTSIIATIGPASRSVERLKEMIKAGMNIARLNFSHGSHEYHAESIANVREAVESFAGSPLSYRPVAIALDTKGPEIRTGILQGGPESEVELVKGSQVLVTVDPAFRTRGNANTVWVDYPNIVRVVPVGGRIYIDDGLISLVVQKIGPEGLVTQVENGGVLGSRKGVNLPGAQVDLPGLSEQDVRDLRFGVEHGVDIVFASFVRKASDVAAVRAALGPEGHGIKIISKIENHEGVKRFDEILEVSDGIMVARGDLGIEIPAEKVFLAQKMMIGRCNLAGKPVVCATQMLESMITKPRPMRAETSDVANAVLDGADCIMLSGETAKGNFPVEAVKMQHAIAREAEAAVYHRQLFEELRRAAPLSRDPTEVTAIGAVEAAFKCCAAAIIVLTTTGRSAQLLSRYRPRAAVIAVTRSAQAARQVHLCRGVFPLLYREPPEAIWADDVDRRVQFGIESGKLRGFLRVGDLVIVVTGWRPGSGYTNIMRVLSIS”, the “soluble on expression in E. coli” value is reported as “soluble”. With “MASFDEAPPGNPKAGEKIFRTKCAQCHTVEKGAGHKQGPNLNGLFGRQSGTTPGYSYSAANKSMAVNWEEKTLYDYLLNPKKYIPGTKMVFPGLKKPQDRADLIAYLKEGTA” the “soluble on expression in E. coli” value was “soluble”. For “MDDGIAMGHIGMRYSLPSRELIADAAETVINAHWFDGVFYIPNCDKITPGMILAAMRTNVPAVFCSGGPMKGGVDMTGHQATLSSLFEAVGTYQSGDMSKEELDYLEKNACPTCGSCSGMFTANSMNCLMEVLGLALPGNGTILAVSDERRELVRQTATKLMDNIKNNVRPRDIVTKEAIDDAFALDMAMGGSTNTVLHTLAIAREAGIDYDLKDINDIAKKTPYLSKIAPSSIYTMHDVHEAGGVPAIINQLIKKGAIKGDRITVTGKTLKENVAGAKIKNEEIIHPIEQPISPVGGLSILYGNIAQDGSVIKVGGVDPSVKTFRGKAICCDSQAQALELIDNGTVKKGHVVVIRYEGPQGGPGMPEMLAPTSKIVGRGLDKDVALITDGRFSGATRGIAIGHVSPEAAEGGNIALIEDGDEIVIDLPNRTLDLLVDDVTLEARRKHLKPFKSKISSGWLRRYTAFAKSANIGGTLMSNEEFEERKAERQAQEKNLEHHHHHH”, the “soluble on expression in E. coli” value was “not soluble”. With “MDWIYSWKDSIFYGMCSCSGSPSYHEKDVPHPHDRLDMPLQLKAYRRNSLNAEGYYRDLERMHERGLFTTGINYNAEKSEDFLNMIERMQSNRLDDQRCEMPERTHNPTSGHQNEQTHQKTNGSAVHNQLTRNIMNEVLTKVGPYPQIVLPSNGFWMDGVNQQHHMDDQVNNMNVNSCARFKLETDETSHCYRRHFFGREHHDFFANDPIVGPLVLSVRTEVISSCDHFRIILRTRKGTIHEIVSATALADRPSASRMAKLLCEEITTEQFSPVAFPGGSELIVQYDEHVLTNTYKFGVIYQKGGQTTEEQLFGNPHGSPAFDEFLSMIGDSVQLNGFQKYRGGLDTAHNQTGHQSVFSEFKNREIMFHVSTMLPYTIGDAQQLQRKRHIGNDIVAIIFQEANTPFAPDMIASNFLHAYVVVQPIDALTDRVRYRVSVAARDDVPFFGPTLPTPSIFKRGQDFRNFLLTKLINAENAAYKSSKFAKLAERTRSSLLDGLHATLRERAEFYATPLLESTSSGGESAATTSSSSNSYGGGILSSVKKAFIGRSRSVSQEASHVPHRAATINVTSRPKKSISSTSSSTSARTHSPIRDEEVVKPYRKEWEISSQESPDNEHDSDTGMESMSSTEMSGQTRASSCTFCVDDFHVAANHQSSDAKRLETLCVDVTRLQNEKHDLLRQNVSCKTDIKKLKDRQSVLSEELERANDEISRLRRMLKKPSNSDMAPVHQHFERSYSDVSV” the “soluble on expression in E. coli” value was “not soluble”. With “MGHHHHHHSHMANSMANSMPSSPLRVAVVCSSNQNRSMEAHNILSKRGFSVRSFGTGTHVKLPGPAPDKPNVYDFKTTYDQMYNDLLRKDKELYPSGLPFKNPPCGPPWKVLRVARAQEACHPVQCTHWLLCLCESLVSIPGARRIVHGLVPVPPMAVGVVRRTDTVWGSP” the “soluble on expression in E. coli” value was “not soluble”. For “MGHLGKTRWTREEDEKLKKLVEQNGTDDWKVIANYLPNRTDVQCQHRWQKVLNPELIKGPWTKEEDQRVIKLVQKYGPKRWSVIAKHLKGRIGKQCRERWHNHLNPEVKKTSWTEEEDRIIYQAHKRLGNRWAEIAKLLPGRTDNAIKNHWNSTMRRKV”, the “soluble on expression in E. coli” value was “soluble”. In the case of “MGKDYYKVLGISKGATDDEIKKAYRKMALKYHPDKNKEAGAENKFKEIAEAYDVLSDDKKKKIYDQFGEEGLKEGGPGAGGGGGGGMHYEFRGDPMNIFSSFFGGSDPFGAGGPGMFDLGGGAGGPNMFFMNQGGMDDGMFGGMHQGGRRGHARQDPAVLHDLSVSLEDVLKGTTKKMKITRKVMTDNAQRLEDKVLTVTIKPGWKSGTKITFPKEGDQHPNRTPADIVFVIKDKPHPKFKREGSDIKRVEKISLKSALTGLDIMIPTLDGADYRLQLNDVIKPGTTRRLTGKGLPNPKSPSHRGDLIIEFDVEFPSQLNPTQREVILRNF”, the “soluble on expression in E. coli” value is reported as “not soluble”. In the case of “MGSDKIHHHHHHMIKKINMEVNTTENKTLEQDYRDLAGLLSNIVDSLPIYFFVKDTGDNFRYVYSSPLMNQLYGRYHNDVVGKTDFDLFLDPVVAQSFRDMDEEVVKTGKMQRFVEQMIDPKGILRTMDTMKLLAPREDKPPYLVGISWDITKQRQVEEELHSYNKRLALACQAGKIYPWLWDLVNGTAELSLEENGQIKHVQITHASFTEKIHPDYRKVYENITTAFMRGEIDSMRFSFPCRYFSDEYVWLEKIGEVYEADPDGKPIRSIGILRDMTVDKRHEADVQAKRLAEESDRMKSAFIANMSHEIRTPLNAIVGFSTLLAESDDEEEKKEYLRIIESSNEFLLQLIGDILDISKIESGKMEFIYTTLRLSEIFAPQQQAFALRVAPGVKVIFESDGNDYCIVSEKTRLTQVLTNFLSNAVKFTSSGSIRFGYRLTDDGIYVYVTDTGMGISKESQASIFNRFVKLNSFKQGTGLGLSICKTIIEKLKGKIGVESEEGKGSTFWFTIPCQPMKVK”, the “soluble on expression in E. coli” value is reported as “not soluble”. With “MGSDKIHHHHHHMSATKLTRREQRARAQHFIDTLEGTAFPNSKRIYITGTHPGVRVPMREIQLSPTLIGGSKEQPQYEENEAIPVYDTSGPYGDPQIAINVQQGLAKLRQPWIDARGDTEELTVRSSDYTKARLADDGLDELRFSGVLTPKRAKAGRRVTQLHYARQGIITPEMEFIAIRENMGRERIRSEVLRHQHPGMSFGAHLPENITAEFVRDEVAAGRAIIPANINHPESEPMIIGRNFLVKVNANIGNSAVTSSIEEEVEKLVWSTRWGADTVMDLSTGRYIHETREWILRNSPVPIGTVPIYQALEKVNGIAEDLTWEAFRDTLLEQAEQGVDYFTIHAGVLLRYVPMTAKRLTGIVSRGGSIMAKWCLSHHQENFLYQHFREICEICAAYDVSLSLGDGLRPGSIQDANDEAQFAELHTLGELTKIAWEYDVQVMIEGPGHVPMQMIRRNMTEELEHCHEAPFYTLGPLTTDIAPGYDHFTSGIGAAMIGWFGCAMLCYVTPKEHLGLPNKEDVKQGLITYKIAAHAADLAKGHPGAQIRDNAMSKARFEFRWEDQFNLALDPFTARAYHDETLPQESGKVAHFCSMCGPKFCSMKISQEVRDYAATQTIEMGMADMSENFRARGGEIYLRKEEA” the “soluble on expression in E. coli” value was “not soluble”. For “MGSSHHHHHHSSGRENLYFQGHERLTLDTRLRQALERNELVLHYQPIVELASGRIVGGEALVRWEDPERGLVMPSAFIPAAEDTGLIVALSDWVLEACCTQLRAWQQQGRAADDLTLSVNISTRQFEGEHLTRAVDRALARSGLRPDCLELEITENVMLVMTDEVRTCLDALRARGVRLALDDFGTGYSSLSYLSQLPFHGLKIDQSFVRKIPAHPSETQIVTTILALARGLGMEVVAEGIETAQQYAFLRDRGCEFGQGNLMSTPQAADAFASLLDRQKASGQRPVHGHETAP”, the “soluble on expression in E. coli” value was “soluble”. With “MLHPYRMEGYIIPPQQTEEMFETEIYRPPMEYQYIIDDSQNDHSWDYNTHHIHPVDFENLPESHFTELQSVQSLHAASVHRFPDVESSHFMDPGLGSHHIPLTNPQMTYLPRTSVCYPHNVQPSPLQRSSDEEDPSSRSPPLEVSDEECMRDHISSTTGGEHGNKKKIRLYQFLLDLLRNGDMKDSIWWVDREKGTFQFSSKHKEVLANRWGIQKGNRKR” the “soluble on expression in E. coli” value was “not soluble”. With “MRTEYCGQLRLSHVGQQVTLCGWVNRRRDLGSLIFIDMRDREGIVQVFFDPDRADALKLASELRNEFCIQVTGTVRARDEKNINRDMATGEIEVLASSLTIINRADVLPLDSNHVNTEEARLKYRYLDLRRPEMAQRLKTRAKITSLVRRFMDDHGFLDIETPMLTKATPEGARDYLVPSRVHKGKFYALPQSPQLFKQLLMMSGFDRYYQIVKCFRDEDLRADRQPEFTQIDVETSFMTAPQVREVMEALVRHLWLEVKGVDLGDFPVMTFAEAERRYGSDKPDLRNPMELTDVADLLKSVEFAVFAGPANDPKGRVAALRVPGGASLTRKQIDEYGNFVKIYGAKGLAYIKVNERAKGLEGINSPVAKFLNAEIIEDILDRTAAQDGDMIFFGADNKKIVADAMGALRLKVGKDLGLTDESKWAPLWVIDFPMFEDDGEGGLTAMHHPFTSPKDMTAAELKAAPENAVANAYDMVINGYEVGGGSVRIHNGDMQQTVFGILGINEEEQREKFGFLLDALKYGTPPHAGLAFGLDRLTMLLTGTDNIRDVIAFPKTTAAACLMTEAPSFANPTALAELSIQVVKKAENN” the “soluble on expression in E. coli” value was “soluble”. In the case of “MSLAKTYDYLFKLLLIGDSGVGKTCLLFRFSEDAFNTTFISTIGIDFKIRTIELDGKKIKLQIWDTAGQERFRTITTAYYRGAMGIMLVYDITNEKSFDNIKNWIRNIEEHASSDVERMILGNKCDMNDKRQVSKERGEKLAIDYGIKFLETSAKSSANVEEAFFTLARDIMTKLNRKMNDSNSAGAGGPVKITENRSKKTSFFRCSLLEGHHHHHH”, the “soluble on expression in E. coli” value is reported as “not soluble”.
